Measured values reported in the supplement of paper PMC10849652.
The other results are listed elsewhere or left out.

Sequences of proteins named here, by UniProt entry; tags and fusion partners are left off. A change or cut given only in a name is not applied to a line headed by its entry.
UniProt P13995: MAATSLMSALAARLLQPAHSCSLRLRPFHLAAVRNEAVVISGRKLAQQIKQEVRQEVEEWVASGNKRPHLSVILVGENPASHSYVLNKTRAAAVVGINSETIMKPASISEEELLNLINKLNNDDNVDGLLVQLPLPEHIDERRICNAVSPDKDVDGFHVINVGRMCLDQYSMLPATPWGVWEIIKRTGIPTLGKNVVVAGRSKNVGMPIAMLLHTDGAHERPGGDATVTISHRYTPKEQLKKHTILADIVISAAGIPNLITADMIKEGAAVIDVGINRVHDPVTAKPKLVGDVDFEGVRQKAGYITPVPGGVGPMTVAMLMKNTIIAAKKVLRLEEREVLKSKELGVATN
UniProt Q2M296: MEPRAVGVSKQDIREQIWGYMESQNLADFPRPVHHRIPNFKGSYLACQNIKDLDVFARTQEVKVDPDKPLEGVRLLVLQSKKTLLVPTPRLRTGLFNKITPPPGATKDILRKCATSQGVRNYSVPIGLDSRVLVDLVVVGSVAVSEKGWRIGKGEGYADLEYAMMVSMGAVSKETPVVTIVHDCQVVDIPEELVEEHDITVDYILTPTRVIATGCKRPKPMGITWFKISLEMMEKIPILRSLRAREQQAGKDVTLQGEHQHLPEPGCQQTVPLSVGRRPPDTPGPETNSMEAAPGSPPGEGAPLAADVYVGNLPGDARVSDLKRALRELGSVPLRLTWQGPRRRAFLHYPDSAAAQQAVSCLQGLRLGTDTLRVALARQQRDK
MTHFD1, A0A384N5Y3, UniProt A0A384N5Y3, whole entry, looked up: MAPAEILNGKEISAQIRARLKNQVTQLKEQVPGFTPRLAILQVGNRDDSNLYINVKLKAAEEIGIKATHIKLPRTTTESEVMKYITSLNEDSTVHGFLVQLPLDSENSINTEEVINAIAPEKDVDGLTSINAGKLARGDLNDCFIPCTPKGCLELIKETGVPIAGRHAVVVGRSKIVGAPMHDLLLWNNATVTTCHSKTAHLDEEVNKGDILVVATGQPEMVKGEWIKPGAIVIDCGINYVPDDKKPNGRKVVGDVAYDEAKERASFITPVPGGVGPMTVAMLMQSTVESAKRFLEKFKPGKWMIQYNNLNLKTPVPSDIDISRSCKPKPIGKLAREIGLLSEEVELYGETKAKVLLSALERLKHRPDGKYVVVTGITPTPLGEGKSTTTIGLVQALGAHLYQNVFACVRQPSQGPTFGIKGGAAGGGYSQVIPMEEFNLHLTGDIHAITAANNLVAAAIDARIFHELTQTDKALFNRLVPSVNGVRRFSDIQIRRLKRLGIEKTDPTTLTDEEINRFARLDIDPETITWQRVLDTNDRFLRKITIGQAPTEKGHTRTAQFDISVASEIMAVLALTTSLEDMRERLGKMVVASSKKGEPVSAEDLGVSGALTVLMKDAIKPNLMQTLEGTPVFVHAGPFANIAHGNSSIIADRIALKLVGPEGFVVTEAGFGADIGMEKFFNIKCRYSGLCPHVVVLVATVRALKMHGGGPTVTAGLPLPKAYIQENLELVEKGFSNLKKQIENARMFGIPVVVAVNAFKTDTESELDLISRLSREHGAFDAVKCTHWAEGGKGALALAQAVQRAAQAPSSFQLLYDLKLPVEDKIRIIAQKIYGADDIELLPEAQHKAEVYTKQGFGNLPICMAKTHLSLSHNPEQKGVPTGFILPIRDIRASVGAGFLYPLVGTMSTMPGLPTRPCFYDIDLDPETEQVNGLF
UniProt P52701: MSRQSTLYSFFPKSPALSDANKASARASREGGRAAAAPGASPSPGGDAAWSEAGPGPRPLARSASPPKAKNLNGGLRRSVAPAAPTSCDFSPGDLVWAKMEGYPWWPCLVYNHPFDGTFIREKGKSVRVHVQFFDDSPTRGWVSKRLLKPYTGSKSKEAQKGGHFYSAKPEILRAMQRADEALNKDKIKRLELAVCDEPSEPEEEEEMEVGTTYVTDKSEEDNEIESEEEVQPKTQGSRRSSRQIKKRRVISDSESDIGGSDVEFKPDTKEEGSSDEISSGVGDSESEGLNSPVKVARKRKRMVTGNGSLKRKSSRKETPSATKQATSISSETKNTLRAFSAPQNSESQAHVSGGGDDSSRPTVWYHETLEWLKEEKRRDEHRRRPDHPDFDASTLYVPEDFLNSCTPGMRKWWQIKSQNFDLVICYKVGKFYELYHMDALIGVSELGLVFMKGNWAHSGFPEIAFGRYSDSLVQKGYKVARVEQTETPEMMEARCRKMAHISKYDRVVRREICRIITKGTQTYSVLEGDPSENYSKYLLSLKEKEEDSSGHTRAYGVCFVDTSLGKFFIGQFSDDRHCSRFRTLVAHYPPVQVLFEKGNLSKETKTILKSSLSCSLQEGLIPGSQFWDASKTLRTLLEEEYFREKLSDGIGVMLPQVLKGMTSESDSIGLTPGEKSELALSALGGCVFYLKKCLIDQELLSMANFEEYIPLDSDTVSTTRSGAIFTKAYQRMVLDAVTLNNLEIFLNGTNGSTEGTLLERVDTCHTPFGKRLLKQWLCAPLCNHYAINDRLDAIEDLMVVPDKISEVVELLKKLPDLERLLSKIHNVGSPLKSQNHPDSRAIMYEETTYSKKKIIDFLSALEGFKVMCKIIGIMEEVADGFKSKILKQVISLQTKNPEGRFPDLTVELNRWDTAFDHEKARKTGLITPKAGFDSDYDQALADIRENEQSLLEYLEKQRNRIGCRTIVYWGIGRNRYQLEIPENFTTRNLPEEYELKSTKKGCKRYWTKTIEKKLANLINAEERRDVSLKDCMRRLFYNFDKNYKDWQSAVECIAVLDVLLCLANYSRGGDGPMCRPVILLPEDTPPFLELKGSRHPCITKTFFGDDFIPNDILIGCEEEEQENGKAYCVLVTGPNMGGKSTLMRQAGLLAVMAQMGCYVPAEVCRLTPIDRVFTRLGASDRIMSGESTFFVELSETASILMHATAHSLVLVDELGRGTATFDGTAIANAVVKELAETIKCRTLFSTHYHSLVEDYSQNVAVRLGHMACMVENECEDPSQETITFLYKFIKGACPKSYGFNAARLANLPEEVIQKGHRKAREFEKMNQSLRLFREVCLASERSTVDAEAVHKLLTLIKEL
UniProt Q96E11: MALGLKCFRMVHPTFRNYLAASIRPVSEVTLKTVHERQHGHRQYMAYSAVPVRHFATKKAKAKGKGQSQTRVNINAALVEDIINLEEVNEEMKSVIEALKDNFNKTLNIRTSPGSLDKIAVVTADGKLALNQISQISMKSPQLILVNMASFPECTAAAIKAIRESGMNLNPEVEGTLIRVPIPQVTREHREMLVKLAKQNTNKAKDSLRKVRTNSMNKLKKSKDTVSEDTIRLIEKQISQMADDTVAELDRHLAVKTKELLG

Experiments:
Assay in all cases: log2 fold change, soluble protein after heating vs DMSO (PISA); higher = thermal stabilisation; K562 lysate, 10 uM; active = over 0.2 and 3.5 SD of the protein, either way, in both replicates (recomputed)
ibrutinib = compound: C=CC(=O)N1CCC[C@@H](n2nc(-c3ccc(Oc4ccccc4)cc3)c3c(N)ncnc32)C1 [ibrutinib]
Procedure, shortened: (§1)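 Values give the log-two fold change in thermal stability against solvent controls, from duplicates. Crude K562 extract at 1 mg/mL protein, made by dounce homogenisation in PBS pH 7.4 with 1 mM MgCl2, was treated with 10 μM compound for 30 min. After 3 min heating across 48°C-58°C, aliquots were pooled, adjusted to 0.5% NP-40 at 4°C and centrifuged at 21,000xg for 90 min. The supernatant was measured by TMTpro 16plex LC-MS/MS with channel sums equalised.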

[1] = compound: CC(=O)c1cnc2ccc(-c3cc(Cl)c(O)c(Cl)c3)nc2c1N[C@H]1CC[C@H](CN(C)C)CC1
Procedure, shortened: as §1

ralimetinib = compound: CC(C)(C)Cn1c(N)nc2ccc(-c3[nH]c(C(C)(C)C)nc3-c3ccc(F)cc3)nc21 [ralimetinib]
Procedure, shortened: as §1

[2] = compound: CC(C)(O)CC(=O)NCCn1ccc2ncnc(Nc3ccc(Oc4cccc(C(F)(F)F)c4)c(Cl)c3)c21
Procedure, shortened: as §1

[3] = compound: CC(C)C1=C2N=C(C=C(N2N=C1)NCC3=CC=CC=C3)NCCCCCCN
Procedure, shortened: as §1

[4] = compound: CC1=C(C(CC(=O)N1)C2=CC=C(C=C2)C(F)(F)F)C(=O)NC3=C(C=C4C(=C3)C=NN4)F
Procedure, shortened: as §1

[5] = compound: CC1=C(C2=C(C=C1)C(=O)C3=CC=CC=C3N2CCCN)C
Procedure, shortened: as §1

[6] = compound: CC1=C(C=C(C=C1)NC(=O)C2=CC(=CC=C2)C(C)(C)C#N)NC3=CC4=C(C=C3)N=CN(C4=O)C
Procedure, shortened: as §1

[7] = compound: CC1=C(C=C(C=C1)NC(=O)C2=CC(=CC=C2)N(C)C)NC(=O)C3=CC=C(C=C3)O
Procedure, shortened: as §1

[8] = compound: CC1=CC=C(C=C1)SC2=C3C=C(SC3=CN=C2)C(=O)N
Procedure, shortened: as §1

vemurafenib = compound: CCCS(=O)(=O)Nc1ccc(F)c(C(=O)c2c[nH]c3ncc(-c4ccc(Cl)cc4)cc23)c1F [vemurafenib]
Procedure, shortened: as §1

[9] = compound: CCCS(=O)(=O)Nc1ccc(F)c(C(=O)c2c[nH]c3ncc(Cl)cc23)c1F
Procedure, shortened: as §1

barasertib = compound: CCN(CCCOc1ccc2c(Nc3cc(CC(=O)Nc4cccc(F)c4)[nH]n3)ncnc2c1)CCOP(=O)(O)O [barasertib]
Procedure, shortened: as §1

volasertib = compound: CC[C@@H]1C(=O)N(C)c2cnc(Nc3ccc(C(=O)N[C@H]4CC[C@H](N5CCN(CC6CC6)CC5)CC4)cc3OC)nc2N1C(C)C [volasertib]
Procedure, shortened: as §1

[10] = compound: CCn1c(C(=O)N(C2CC2)C2CC2)cc2c3c(ncn3C)c(Nc3cc(C)n(C)n3)nc21
Procedure, shortened: as §1

[11] = compound: CCn1cc(-c2ccnc3[nH]c(-c4cccc(CN(C)C)c4)cc23)c(-c2ccc(NC(=O)N(C)C)cc2)n1
Procedure, shortened: as §1

[12] = compound: CN1CCC(CNc2ccc3ncc(-c4cccc(OC(F)(F)F)c4)n3n2)CC1
Procedure, shortened: as §1

saracatinib = compound: CN1CCN(CCOc2cc(OC3CCOCC3)c3c(Nc4c(Cl)ccc5c4OCO5)ncnc3c2)CC1 [saracatinib]
Procedure, shortened: as §1

sotrastaurin = compound: CN1CCN(c2nc(C3=C(c4c[nH]c5ccccc45)C(=O)NC3=O)c3ccccc3n2)CC1 [sotrastaurin]
Procedure, shortened: as §1

[13] = compound: CC[C@@H]1C(=O)N(C)c2cnc(Nc3ccc(C(=O)NC4CCN(C)CC4)cc3OC)nc2N1C1CCCC1
Procedure, shortened: as §1

Measured: log2 fold change

MRPL35 (UniProt Q9NZE8)
inactive: ibrutinib -0.019 | [1] -0.014 | ralimetinib 0.041 | [2] 0.047 | [3] 0.013 | [4] -0.012 | [5] -0.108 | [6] -0.032 | [7] 0.032 | [8] 0.01 | vemurafenib 0.091 | [9] -0.001 | barasertib 0.021 | volasertib 0.013 | [10] 0.005 | [11] -0.124 | [12] -0.011 | saracatinib 0.04 | sotrastaurin -0.019

MRPS11 (UniProt P82912)
inactive: ibrutinib 0.003 | [1] 0.021 | ralimetinib 0.083 | [2] -0.024 | [3] 0.036 | [4] 0.049 | [5] -0.015 | [6] 0.011 | [7] 0.024 | [8] -0.023 | vemurafenib -0.062 | [9] 0.05 | barasertib 0.043 | [13] -0.128 | volasertib 0.101 | [10] -0.029 | [11] -0.035 | [12] -0.021 | saracatinib 0.103 | sotrastaurin 0.029

MTHFD2 (UniProt P13995)
inactive: ibrutinib -0.036 | [1] 0.01 | ralimetinib 0.002 | [2] -0.019 | [3] 0.015 | [4] -0.03 | [5] 0.006 | [6] 0.02 | [7] 0.05 | [8] 0.009 | vemurafenib -0.023 | [9] -0.008 | barasertib -0.047 | [13] -0.044 | volasertib -0.014 | [10] 0.034 | [11] 0.007 | [12] -0.029 | saracatinib -0.008 | sotrastaurin 0.015

Two neighbouring records out of the list so far, quoted:
MRPL35 (UniProt Q9NZE8)
inactive: ibrutinib -0.019 | [1] -0.014 | ralimetinib 0.041 | [2] 0.047 | [3] 0.013 | [4] -0.012 | [5] -0.108 | [6] -0.032 | [7] 0.032 | [8] 0.01 | vemurafenib 0.091 | [9] -0.001 | barasertib 0.021 | volasertib 0.013 | [10] 0.005 | [11] -0.124 | [12] -0.011 | saracatinib 0.04 | sotrastaurin -0.019

MRPS11 (UniProt P82912)
inactive: ibrutinib 0.003 | [1] 0.021 | ralimetinib 0.083 | [2] -0.024 | [3] 0.036 | [4] 0.049 | [5] -0.015 | [6] 0.011 | [7] 0.024 | [8] -0.023 | vemurafenib -0.062 | [9] 0.05 | barasertib 0.043 | [13] -0.128 | volasertib 0.101 | [10] -0.029 | [11] -0.035 | [12] -0.021 | saracatinib 0.103 | sotrastaurin 0.029

More entries.

MTMR1 (UniProt Q13613)
inactive: ibrutinib -0.006 | [1] 0.036 | ralimetinib 0.042 | [2] -0.034 | [3] -0.031 | [4] 0.008 | [5] 0.007 | [6] -0.041 | [7] 0.007 | [8] -0.027 | vemurafenib 0.064 | [9] 0.065 | barasertib 0.013 | [13] 0.018 | volasertib -0.078 | [10] 0.03 | [11] 0.07 | [12] -0.076 | saracatinib 0.001 | sotrastaurin -0.015

MTHFSD isoform 3 (UniProt Q2M296)
inactive: ibrutinib -0.047 | [1] -0.013 | ralimetinib 0.069 | [2] 0.042 | [3] 0.095 | [4] -0.055 | [5] -0.15 | [6] -0.203 | [7] 0.037 | [8] -0.041 | vemurafenib 0.01 | [9] 0.112 | barasertib 0.04 | volasertib 0.021 | [10] 0.158 | [11] 0.112 | [12] 0.013 | saracatinib 0.059 | sotrastaurin -0.095

MTHFD1, A0A384N5Y3
inactive: ibrutinib -0.014 | [1] -0.001 | ralimetinib 0.028 | [2] 0.028 | [3] 0.03 | [4] -0.033 | [5] -0.032 | [6] 0.003 | [7] 0.047 | [8] 0.014 | vemurafenib 0.058 | [9] 0.011 | barasertib 0.017 | [13] -0.06 | volasertib -0.112 | [10] 0.059 | [11] 0.008 | [12] -0.053 | saracatinib -0.012 | sotrastaurin 0.039

MSH6 (UniProt P52701)
inactive: ibrutinib 0.001 | [1] 0.022 | ralimetinib 0.024 | [2] 0.003 | [3] 0.027 | [4] -0.01 | [5] -0.01 | [6] -0.002 | [7] 0.057 | [8] 0.003 | vemurafenib 0.024 | [9] 0.028 | barasertib 0.021 | [13] -0.109 | volasertib -0.061 | [10] 0.044 | [11] -0.035 | [12] -0.041 | saracatinib -0.003 | sotrastaurin 0.047

MRRF (UniProt Q96E11)
inactive: ibrutinib 0.083 | [1] 0.027 | ralimetinib -0.007 | [2] -0.036 | [3] -0.016 | [4] 0.007 | [5] -0.025 | [6] -0.015 | [7] 0.008 | [8] 0.017 | vemurafenib 0.025 | [9] 0.012 | barasertib -0.019 | [13] 0.048 | volasertib -0.013 | [10] -0.024 | [11] 0.009 | [12] 0.001 | saracatinib 0.012 | sotrastaurin -0.038

MRPS10 (UniProt P82664)
inactive: ibrutinib -0.02 | [1] -0.04 | ralimetinib 0.008 | [2] -0.023 | [3] 0.028 | [4] 0.023 | [5] -0.034 | [6] 0.009 | [7] 0.021 | [8] -0.008 | vemurafenib 0.05 | [9] -0.005 | barasertib -0.019 | [13] 0.025 | volasertib 0.004 | [10] -0.042 | [11] -0.193 | [12] 0.04 | saracatinib 0.033 | sotrastaurin -0.007

MRPS5 (UniProt P82675)
inactive: ibrutinib -0.008 | [1] -0.055 | ralimetinib -0.008 | [2] 0.039 | [3] -0.001 | [4] -0.009 | [5] -0.155 | [6] 0.029 | [7] -0.001 | [8] -0.01 | vemurafenib -0.078 | [9] 0.017 | barasertib 0.01 | [13] -0.074 | volasertib -0.02 | [10] -0.027 | [11] 0.041 | [12] -0.017 | saracatinib -0.041 | sotrastaurin 0.032

MRPL30 isoform 2 (UniProt Q8TCC3)
active: [11] 0.563 | [12] -0.434
inactive: ibrutinib 0.01 | [1] 0.043 | ralimetinib 0.04 | [2] -0.084 | [3] 0 | [4] 0 | [5] -0.037 | [6] 0.02 | [7] -0.006 | [8] 0.087 | [9] 0.002 | barasertib 0.002 | [13] -0.068 | volasertib -0.013 | [10] -0.027 | saracatinib 0.01 | sotrastaurin 0.016

MRPL28 (UniProt Q13084)
active: [11] 0.411
inactive: ibrutinib 0.151 | [1] 0.04 | ralimetinib 0.027 | [2] -0.005 | [3] 0.012 | [4] -0.112 | [5] -0.017 | [6] 0.057 | [7] -0.012 | [8] 0.023 | vemurafenib 0.005 | [9] 0.009 | barasertib 0.053 | [13] -0.06 | volasertib 0.019 | [10] 0.024 | [12] -0.356 | saracatinib -0.016 | sotrastaurin 0.055
